{"sequences": {"note": "Sequences of proteins named here, by UniProt entry; tags and fusion partners are left off. Residues count along the entry.", "UniProt P05113, residues 20-134": "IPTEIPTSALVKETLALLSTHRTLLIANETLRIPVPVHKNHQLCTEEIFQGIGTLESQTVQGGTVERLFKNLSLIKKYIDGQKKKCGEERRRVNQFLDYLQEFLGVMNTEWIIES"}, "source": "patent US20160257744A1", "target": "T1, IL5 receptor α (UniProt Q01344)", "T1 sequence (looked up)": "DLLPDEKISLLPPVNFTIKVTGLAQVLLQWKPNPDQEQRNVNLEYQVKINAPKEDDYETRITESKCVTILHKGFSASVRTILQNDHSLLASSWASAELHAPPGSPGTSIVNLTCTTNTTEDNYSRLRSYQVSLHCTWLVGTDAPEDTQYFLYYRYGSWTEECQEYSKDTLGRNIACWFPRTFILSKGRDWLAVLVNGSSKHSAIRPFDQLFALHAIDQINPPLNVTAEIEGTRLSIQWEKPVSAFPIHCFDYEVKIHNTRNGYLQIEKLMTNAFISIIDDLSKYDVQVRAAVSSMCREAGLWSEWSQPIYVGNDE", "experiment": "ELISA: biotinylated IL5 on coated IL5 receptor, streptavidin-HRP [panel B]", "note": "These are yes or no findings as the source states them, for the method shown. Some binding calls cover weakened binding; strength is not graded here."}
{"substance": "interleukin 5 (IL5) (from UniProt P05113 20-134) (ligand)", "values": [{"measurement": "binding", "result": "binds"}]}
